No constants are given. Whether binding was seen depends on the method and setting. Some results given as binding are weak or reduced against the parent protein; the word gives no strength.
What was measured:
p130CAS = target: T1, p130CAS (UniProt P56945); test: fluorescence cross-correlation spectroscopy (FCCS); cytosol of live REF52 cells co-expressing one protein tagged with meGFP and the other with TDmKate2; 37°C; association score against the negative control meGFP + TDmKate2 (Fisher's exact test, p-value <0.0001); apparent Ka
T1 sequence: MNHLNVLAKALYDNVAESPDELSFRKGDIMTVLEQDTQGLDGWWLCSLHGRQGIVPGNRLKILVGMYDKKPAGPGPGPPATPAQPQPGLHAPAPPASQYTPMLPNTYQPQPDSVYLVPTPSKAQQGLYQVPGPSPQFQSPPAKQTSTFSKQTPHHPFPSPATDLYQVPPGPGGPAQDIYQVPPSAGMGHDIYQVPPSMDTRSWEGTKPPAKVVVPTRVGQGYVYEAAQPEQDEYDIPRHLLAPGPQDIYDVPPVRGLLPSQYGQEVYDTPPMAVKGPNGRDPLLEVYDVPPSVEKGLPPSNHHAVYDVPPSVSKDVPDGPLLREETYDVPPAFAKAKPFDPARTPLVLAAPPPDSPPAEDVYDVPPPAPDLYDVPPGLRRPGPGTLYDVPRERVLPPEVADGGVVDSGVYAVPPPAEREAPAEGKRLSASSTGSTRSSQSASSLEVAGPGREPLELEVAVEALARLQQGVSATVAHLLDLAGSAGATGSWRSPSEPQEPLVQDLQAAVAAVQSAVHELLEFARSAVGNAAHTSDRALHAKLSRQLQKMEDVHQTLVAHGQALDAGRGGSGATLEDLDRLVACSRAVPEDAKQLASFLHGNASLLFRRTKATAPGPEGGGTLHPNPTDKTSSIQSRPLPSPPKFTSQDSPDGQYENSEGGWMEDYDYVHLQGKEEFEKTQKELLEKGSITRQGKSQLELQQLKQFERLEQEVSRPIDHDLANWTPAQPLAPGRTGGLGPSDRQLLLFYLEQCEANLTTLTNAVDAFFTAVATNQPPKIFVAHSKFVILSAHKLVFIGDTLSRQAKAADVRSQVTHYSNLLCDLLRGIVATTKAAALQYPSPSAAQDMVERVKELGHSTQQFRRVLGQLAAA

The chains behind the UniProt entries cited, without tags or fusion partners. Where a name states a change or a piece, a line headed by the entry shows the natural chain unless it says otherwise. A line that says so, or that is headed by a name, gives the form on record, which may keep a tag or linker.
paxillin (P49023, form named): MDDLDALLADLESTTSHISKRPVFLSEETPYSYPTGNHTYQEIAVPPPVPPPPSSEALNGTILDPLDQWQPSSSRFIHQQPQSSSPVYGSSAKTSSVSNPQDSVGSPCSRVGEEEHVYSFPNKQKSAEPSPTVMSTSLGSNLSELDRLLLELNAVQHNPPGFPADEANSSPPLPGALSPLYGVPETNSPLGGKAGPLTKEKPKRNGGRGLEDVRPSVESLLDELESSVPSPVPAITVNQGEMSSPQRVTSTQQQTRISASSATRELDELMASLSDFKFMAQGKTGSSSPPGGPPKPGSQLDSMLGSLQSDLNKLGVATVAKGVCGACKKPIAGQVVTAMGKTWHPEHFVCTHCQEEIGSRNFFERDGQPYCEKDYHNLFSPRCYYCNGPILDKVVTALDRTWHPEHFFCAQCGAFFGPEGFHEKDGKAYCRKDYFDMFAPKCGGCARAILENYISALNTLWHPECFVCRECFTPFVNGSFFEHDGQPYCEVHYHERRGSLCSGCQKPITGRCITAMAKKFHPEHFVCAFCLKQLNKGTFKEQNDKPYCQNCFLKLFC

[1] = target: FAK (human (HeLa cDNA)), Q05397; test: fluorescence cross-correlation spectroscopy (FCCS); cytosol of live NIH3T3 cells co-expressing one protein tagged with meGFP and the other with TDmKate2; 37°C; association score against the negative control (p-value <0.02); conditions: remark: other sources report otherwise
[2] = target: FAK (human (HeLa cDNA)), Q05397; test: fluorescence cross-correlation spectroscopy (FCCS); cytosol of live REF52 cells co-expressing one protein tagged with meGFP and the other with TDmKate2; 37°C; association score against the negative control meGFP + TDmKate2 (Fisher's exact test, p-value <0.0001); apparent Ka; conditions: remark: other sources report otherwise
paxillin [3] = target: paxillin (UniProt P49023); test: as above
paxillin [4] = target: paxillin (UniProt P49023); test: fluorescence cross-correlation spectroscopy (FCCS); cytosol of live NIH3T3 cells co-expressing one protein tagged with meGFP and the other with TDmKate2; 37°C; association score against the negative control (p-value <0.02)

B1: zyxin (protein, UniProt Q15942 1-572)
chain: MAAPRPSPAISVSVSAPAFYAPQKKFGPVVAPKPKVNPFRPGDSEPPPAPGAQRAQMGRVGEIPPPPPEDFPLPPPPLAGDGDDAEGALGGAFPPPPPPIEESFPPAPLEEEIFPSPPPPPEEEGGPEAPIPPPPQPREKVSSIDLEIDSLSSLLDDMTKNDPFKARVSSGYVPPPVATPFSSKSSTKPAAGGTAPLPPWKSPSSSQPLPQVPAPAQSQTQFHVQPQPQPKPQVQLHVQSQTQPVSLANTQPRGPPASSPAPAPKFSPVTPKFTPVASKFSPGAPGGSGSQPNQKLGHPEALSAGTGSPQPPSFTYAQQREKPRVQEKQHPVPPPAQNQNQVRSPGAPGPLTLKEVEELEQLTQQLMQDMEHPQRQNVAVNELCGRCHQPLARAQPAVRALGQLFHIACFTCHQCAQQLQGQQFYSLEGAPYCEGCYTDTLEKCNTCGEPITDRMLRATGKAYHPHCFTCVVCARPLEGTSFIVDQANRPHCVPDYHKQYAPRCSVCSEPIMPEPGRDETVRVVALDKNFHMKCYKCEDCGKPLSIEADDNGCFPLDGHVLCRKCHTARAQT
B1 was tested, and the binding (p130CAS) was “binds”.

B2: p130CAS, P56945 1-870 (protein)
chain: T1 sequence
B2 was tested, and the binding [1] was “binds” and the binding [2] was “binds”.

B3: p130CAS (protein, UniProt P56945 1-870)
chain: T1 sequence
For B3, the binding (paxillin [3]) was “binds” and the binding (paxillin [4]) was “binds”.
